Earlier results as cited in patent US20160075995A1, “SWEAT GLAND-DERIVED STEM CELLS AND METHODS OF USE” (priority 2014, published 2016).
For at least one compound, name, drawing or mass did not settle the structure.

Test system: BMP signaling
Details: reported in literature

## c1cc(-c2cnn3cc(-c4ccc(OCCN5CCCCC5)cc4)cnc23)ccn1 [dorsomorphin]
  BMP-mediated SMAD1/5/8 phosphorylation: blocks BMP-mediated SMAD1/5/8 phosphorylation
  specificity for BMP versus TGF-beta and activin signaling: preferential specificity toward inhibiting BMP versus TGF-beta and activin signaling
